Consider 1 substance from paper PMC10542385.

Chains of the proteins cited; added tags and fusions are not shown.
UniProt Q9Y5T5: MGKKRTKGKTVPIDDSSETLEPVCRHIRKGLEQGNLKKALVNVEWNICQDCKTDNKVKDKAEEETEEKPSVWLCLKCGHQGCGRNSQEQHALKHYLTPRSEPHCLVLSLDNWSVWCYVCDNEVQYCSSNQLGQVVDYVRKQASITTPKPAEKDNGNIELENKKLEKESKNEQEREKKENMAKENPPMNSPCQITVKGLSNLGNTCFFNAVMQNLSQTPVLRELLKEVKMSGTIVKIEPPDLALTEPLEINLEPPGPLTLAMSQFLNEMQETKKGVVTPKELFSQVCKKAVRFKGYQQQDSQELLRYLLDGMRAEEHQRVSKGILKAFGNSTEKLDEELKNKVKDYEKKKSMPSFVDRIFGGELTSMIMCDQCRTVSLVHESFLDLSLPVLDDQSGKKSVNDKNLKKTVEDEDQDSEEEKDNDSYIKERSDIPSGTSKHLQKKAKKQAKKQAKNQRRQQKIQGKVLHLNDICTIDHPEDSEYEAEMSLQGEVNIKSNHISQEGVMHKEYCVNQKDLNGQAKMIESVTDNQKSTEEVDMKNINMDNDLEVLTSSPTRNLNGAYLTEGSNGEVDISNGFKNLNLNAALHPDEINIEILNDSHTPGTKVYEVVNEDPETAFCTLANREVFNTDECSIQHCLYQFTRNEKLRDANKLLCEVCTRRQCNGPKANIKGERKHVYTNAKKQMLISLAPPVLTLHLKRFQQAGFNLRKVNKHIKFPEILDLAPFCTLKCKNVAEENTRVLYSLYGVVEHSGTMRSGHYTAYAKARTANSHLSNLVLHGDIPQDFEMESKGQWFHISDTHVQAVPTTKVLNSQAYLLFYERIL
UniProt Q14145: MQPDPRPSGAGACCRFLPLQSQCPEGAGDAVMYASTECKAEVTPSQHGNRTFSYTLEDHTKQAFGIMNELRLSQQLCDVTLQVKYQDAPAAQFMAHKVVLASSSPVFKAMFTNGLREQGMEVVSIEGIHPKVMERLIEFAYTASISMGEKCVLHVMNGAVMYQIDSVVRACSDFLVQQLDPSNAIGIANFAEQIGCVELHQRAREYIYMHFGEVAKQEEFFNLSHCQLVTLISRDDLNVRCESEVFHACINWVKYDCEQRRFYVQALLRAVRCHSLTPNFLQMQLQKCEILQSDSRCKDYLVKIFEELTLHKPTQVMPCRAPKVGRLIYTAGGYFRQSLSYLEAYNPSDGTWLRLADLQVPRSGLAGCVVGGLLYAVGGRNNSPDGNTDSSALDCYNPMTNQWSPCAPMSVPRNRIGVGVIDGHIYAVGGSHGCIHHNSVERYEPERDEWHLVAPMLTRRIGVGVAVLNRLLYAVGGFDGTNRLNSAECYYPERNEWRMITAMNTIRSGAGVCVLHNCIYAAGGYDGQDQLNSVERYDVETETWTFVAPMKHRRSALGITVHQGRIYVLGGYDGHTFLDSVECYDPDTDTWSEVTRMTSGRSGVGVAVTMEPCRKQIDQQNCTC

The target of the assay is Flag-tagged USP16 (ubiquitin carboxyl-terminal hydrolase 16) (human) (UniProt Q9Y5T5). As to the kind of experiment: affinity purification with mass spectrometry; HEK293T cells transfected with Flag-USP16; immunoprecipitation by Flag antibody or IgG with protein A/G beads; silver staining; LC-MS/MS.

Results are given in words; binding and its absence hold for the method and conditions named. Binding seen in cells or lysates may run through a third protein. A yes stands for co-enrichment or nearness to the bait. Other partners may have been found.

For “KEAP1 (Kelch Like ECH Associated Protein 1), endogenous in HEK293T cells (from UniProt Q14145 1-624)”, the binding result is on record as “binds”.
